The target in this assay is T1, EXO70B1 exocyst subunit, two-hybrid bait (Arabidopsis) (UniProt Q9FGH9).
T1 sequence: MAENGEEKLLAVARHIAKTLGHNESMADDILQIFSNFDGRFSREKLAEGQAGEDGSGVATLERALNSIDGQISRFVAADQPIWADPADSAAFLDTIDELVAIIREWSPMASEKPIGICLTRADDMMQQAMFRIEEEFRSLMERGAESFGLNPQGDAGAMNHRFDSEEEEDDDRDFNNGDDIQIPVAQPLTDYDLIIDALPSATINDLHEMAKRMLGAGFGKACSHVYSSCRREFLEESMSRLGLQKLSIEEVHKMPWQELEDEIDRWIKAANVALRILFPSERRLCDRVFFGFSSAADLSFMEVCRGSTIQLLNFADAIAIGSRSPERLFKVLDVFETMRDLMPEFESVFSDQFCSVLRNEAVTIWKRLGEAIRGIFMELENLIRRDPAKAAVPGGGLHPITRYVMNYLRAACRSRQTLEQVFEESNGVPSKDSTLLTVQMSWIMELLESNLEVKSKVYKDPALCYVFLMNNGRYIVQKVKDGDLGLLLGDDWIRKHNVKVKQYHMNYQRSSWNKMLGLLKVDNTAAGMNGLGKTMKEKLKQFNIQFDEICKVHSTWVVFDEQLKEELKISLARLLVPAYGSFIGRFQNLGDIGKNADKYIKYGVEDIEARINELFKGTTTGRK
Nature of the assay: two-hybrid; RIN4 constructs and NOI6 in pGADT7 (prey), exocyst subunits in bait vectors; yeast plated in a 10x dilution series from OD600=0.1 on plates without leucine, tryptophan, histidine and adenine.

Results are given in words; binding and its absence hold for the method and conditions named. Binding calls can cover weak binding; strength is not graded here.

With “N-terminal RIN4 fragment (N-RCS2), two-hybrid prey (Arabidopsis) (domain or fragment)”, the binding entry was “binds weakly”.

For the origin of these results see PMC5853926.
